Experimental data: patent US20120329721A1, “MEANS FOR PREVENTING AND TREATING CELLULAR DEATH AND THEIR BIOLOGICAL APPLICATIONS” (CHIESI FARMACEUTICI S.P.A., priority 2003, published 2012)

Tested on: primary cortical neurons
Details: Swiss, mouse

## NS(=O)(=O)c1cc(C(=O)O)c(NCc2ccco2)cc1Cl [furosemide]
  concentration toxic for cortical neurons: more than 3 mM
